Experimental data: PubChem BioAssay AID1259308 (NCATS, 2017)

- Aim: 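Genes whose loss raises luciferase production in HEK293 cells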 (primary screen)
- Cells: human HEK293 embryonic kidney cells stably expressing firefly luciferase (HEK-CMV-Luc2-Hygro)
- Reagent: single siRNA against human genes, 0.8 pmol siRNA per well
- Duration: 72 h
- Read-out: 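Luciferase light (ONE-Glo) measured on one replicate plate set and viability (CellTiter-Glo) on the other, scaled to a negative control siRNA, with robust z-scores and luciferase per cell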
- Reading the numbers: total luciferase, z-score and total luciferase, % of control: higher = more reporter protein produced
- Rule for the call: 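Active when the median/MAD z-score for overall luciferase is greater than 3; a gene was taken forward for validation with new siRNAs if at least two of its three siRNAs passed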
- Meaning of the calls: active = raised luciferase; inactive = no rise
Here is an unselected part of about 59,000 reagents. About 1,510 of all reagents (2.6%) count as active. 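Calls use total luciferase alone and ignore viability, so some active siRNAs may act by altering cell number.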 Entries without a mark were called inactive. The numbers tell different reagents against one gene apart. Not all columns of the deposit are shown.

target gene | siRNA no. | total luciferase, z-score | total luciferase, % of control
NUBPL (NUBP iron-sulfur cluster assembly factor, mitochondrial) | 1 | -2.11 | 40
NUBPL (NUBP iron-sulfur cluster assembly factor, mitochondrial) | 2 | -0.702 | 67.9
NUBPL (NUBP iron-sulfur cluster assembly factor, mitochondrial) | 3 | -0.316 | 75.6
PLD4 (phospholipase D family member 4) | 1 | 0.979 | 101
PLD4 (phospholipase D family member 4) | 2 | -0.302 | 75.9
PLD4 (phospholipase D family member 4) | 3 | 1.25 | 107
AIRE (autoimmune regulator) | 1 | -2.59 | 30.3
AIRE (autoimmune regulator) | 2 | -1.11 | 59.8
AIRE (autoimmune regulator) | 3 | 1.86 | 119
JRKL (JRK like) | 1 | -0.279 | 76.3
JRKL (JRK like) | 2 | -0.985 | 62.3
JRKL (JRK like) | 3 | -0.965 | 62.7
MOBP (myelin associated oligodendrocyte basic protein) | 1 | 2.46 | 131
MOBP (myelin associated oligodendrocyte basic protein) | 2 | 0.095 | 83.8
MOBP (myelin associated oligodendrocyte basic protein) | 3 | 1.18 | 105
ZBTB38 (zinc finger and BTB domain containing 38) | 1 | -1.38 | 54.4
ZBTB38 (zinc finger and BTB domain containing 38) | 2 | -0.556 | 70.8
ZBTB38 (zinc finger and BTB domain containing 38) | 3 | 0.871 | 99.2
MOV10 (Mov10 RNA helicase) | 1 | 0.496 | 91.7
MOV10 (Mov10 RNA helicase) | 2 | -0.0313 | 81.3
MOV10 (Mov10 RNA helicase) | 3 | 4.77 (active) | 177
CCDC88B (coiled-coil and HOOK domain protein 88B) | 1 | 0.0889 | 83.7
CCDC88B (coiled-coil and HOOK domain protein 88B) | 2 | 1.12 | 104
CCDC88B (coiled-coil and HOOK domain protein 88B) | 3 | 0.00309 | 81.9
TNN (tenascin N) | 1 | 0.192 | 85.7
TNN (tenascin N) | 2 | 0.838 | 98.6
TNN (tenascin N) | 3 | 0.197 | 85.8
MIER2 (MIER family member 2) | 1 | -0.524 | 71.5
MIER2 (MIER family member 2) | 2 | -0.103 | 79.8
MIER2 (MIER family member 2) | 3 | -0.207 | 77.8
CLEC1B (C-type lectin domain family 1 member B) | 1 | -1.25 | 57.1
CLEC1B (C-type lectin domain family 1 member B) | 2 | 0.973 | 101
CLEC1B (C-type lectin domain family 1 member B) | 3 | -0.218 | 77.5
PHF10 (PHD finger protein 10) | 1 | -1.55 | 51
PHF10 (PHD finger protein 10) | 2 | 0.962 | 101
PHF10 (PHD finger protein 10) | 3 | 0.0163 | 82.2
MRPS28 (mitochondrial ribosomal protein S28) | 1 | 0.104 | 84
MRPS28 (mitochondrial ribosomal protein S28) | 2 | 0.04 | 82.7
MRPS28 (mitochondrial ribosomal protein S28) | 3 | 2.67 | 135
LOC388282 | 1 | -1.38 | 54.4
LOC388282 | 2 | -2.48 | 32.6
LOC388282 | 3 | -0.784 | 66.3
SVIP (small VCP interacting protein) | 1 | -0.998 | 62
SVIP (small VCP interacting protein) | 2 | -0.288 | 76.2
SVIP (small VCP interacting protein) | 3 | 2.56 | 133
DPH7 (diphthamide biosynthesis 7) | 1 | -0.28 | 76.3
DPH7 (diphthamide biosynthesis 7) | 2 | -0.61 | 69.8
DPH7 (diphthamide biosynthesis 7) | 3 | 0.618 | 94.2
RPS14 (ribosomal protein S14) | 1 | -2.77 | 26.8
RPS14 (ribosomal protein S14) | 2 | -2.89 | 24.5
RPS14 (ribosomal protein S14) | 3 | -3.16 | 19
RNH1 (ribonuclease/angiogenin inhibitor 1) | 1 | 0.59 | 93.6
RNH1 (ribonuclease/angiogenin inhibitor 1) | 2 | -0.156 | 78.8
RNH1 (ribonuclease/angiogenin inhibitor 1) | 3 | -0.95 | 63
OR4C11 (olfactory receptor family 4 subfamily C member 11) | 1 | -0.243 | 77.1
OR4C11 (olfactory receptor family 4 subfamily C member 11) | 2 | -1.1 | 60
OR4C11 (olfactory receptor family 4 subfamily C member 11) | 3 | -1.79 | 46.4
SOX15 (SRY-box transcription factor 15) | 1 | 0.0682 | 83.2
SOX15 (SRY-box transcription factor 15) | 2 | 2.91 | 140
SOX15 (SRY-box transcription factor 15) | 3 | 0.606 | 93.9
CMKLR1 (chemerin chemokine-like receptor 1) | 1 | 0.991 | 102
CMKLR1 (chemerin chemokine-like receptor 1) | 2 | 0.558 | 93
CMKLR1 (chemerin chemokine-like receptor 1) | 3 | 0.472 | 91.3
NAF1 (nuclear assembly factor 1 ribonucleoprotein) | 1 | -0.846 | 65.1
NAF1 (nuclear assembly factor 1 ribonucleoprotein) | 2 | -0.471 | 72.5
NAF1 (nuclear assembly factor 1 ribonucleoprotein) | 3 | -0.755 | 66.9
PTK2B (protein tyrosine kinase 2 beta) | 1 | 0.88 | 99.4
PTK2B (protein tyrosine kinase 2 beta) | 2 | -0.818 | 65.6
PTK2B (protein tyrosine kinase 2 beta) | 3 | -0.126 | 79.4
SFXN2 (sideroflexin 2) | 1 | 0.344 | 88.7
SFXN2 (sideroflexin 2) | 2 | 0.462 | 91.1
SFXN2 (sideroflexin 2) | 3 | -0.953 | 62.9
LINC01348 (long independently transcribed non-coding RNA 1348) | 1 | -0.479 | 72.4
LINC01348 (long independently transcribed non-coding RNA 1348) | 2 | -0.516 | 71.6
LINC01348 (long independently transcribed non-coding RNA 1348) | 3 | -0.95 | 63

10 of these entries, set out differently:
target gene,siRNA no.,"total luciferase, z-score","total luciferase, % of control"
ZBTB38 (zinc finger and BTB domain containing 38),3,0.871,99.2
MOV10 (Mov10 RNA helicase),1,0.496,91.7
MOV10 (Mov10 RNA helicase),2,-0.0313,81.3
MOV10 (Mov10 RNA helicase),3,4.77 (active),177
CCDC88B (coiled-coil and HOOK domain protein 88B),1,0.0889,83.7
CCDC88B (coiled-coil and HOOK domain protein 88B),2,1.12,104
CCDC88B (coiled-coil and HOOK domain protein 88B),3,0.00309,81.9
TNN (tenascin N),1,0.192,85.7
TNN (tenascin N),2,0.838,98.6
TNN (tenascin N),3,0.197,85.8
